# Patent US10857167B2, “Use of oligosaccharide compositions to enhance weight gain” (Children's Hospital Medical Center, priority 2015, dated 2020)
# Several values for one entry are separate records, joined by “and”; a condition that tells them apart may be missing. Identical values can stand only once. This continues a long series; more values of the same kind are listed elsewhere.
# Test system: distal small bowel gene expression
# Experiment: RNA sequencing / transcriptional analysis of small bowel 56 days after ICR (2′-FL signature response)
# Format: in vivo, mouse
# Excerpt: Luminal small bowel contents were expressed into AllProtect Tissue Reagent (Qiagen Inc, CA). Bacterial DNA was extracted using the AllPrep DNA/RNA Mini Kit (Qiagen Inc, CA), according to kit instructions and prior to sequencing (described below). Small bowel tissue samples for RNA were placed into RNA Later (Life Technologies, NY). RNA extraction was accomplished following Qiagen RNeasy Plus Kit instruction (Qiagen Inc, CA). All nucleic acid samples were then stored at -80 Celsius until sequenced (described below). Transcriptional analysis was carried out on resected and harvested small bowel samples obtained from operated mice taken to 8 weeks. Murine RNA sequencing libraries were prepared from approximately 1.5 μg RNA using the TruSeq RNA Sample Preparation Kit (Illumina, Calif.) and sequenced using the HiSeq 2000 Sequencing System (Illumina, Calif.) with single-end 50 bp reads. Following removal of primers and barcodes, sequences were aligned to the mm10 genome using reference annotations from UCSC (Rosenbloom et al. (2015) Nucleic acids research 43: […]-681) (n=36,186 entities). Aligned reads were quantified and used to compute reads per kilobase per million mapped reads (RPKM); raw counts were then normalized using the DESeq algorithm and each harvested sample was baselined to its own resected sample. A filter was applied to the data, requiring at least three reads in all samples of at least one of the four experimental conditions (n=14,489 entities). The data discussed in this publication have been deposited in NCBI's Gene Expression Omnibus and are accessible through NCBI Gene Expression Omnibus (GEO) Series accession number GSE72590. Edgar et al. (2002) Nucleic acids research 30: 207-210. In order to characterize the impact of 2'-FL supplementation while accounting for the effect of ileoecal resection, a t-test was applied between resected and harvested samples within control and experimental animals. Significance was set at a p-value of ≤0.05 and a fold change of 3, which generated 2,576 differentially regulated entities across two comparisons. Gene set unions and intersections of the control and experimental gene sets were identified through Venn diagrams. From the master list, the gene list specific to animals supplemented with 2'-FL were removed in order to identify genes differentially regulated only by ICR (n=546 entities); this gene set characterizes the adaptive response. Further, the 2'-FL response (n=2,030 entities) was identified by removing the adaptive response signature described above from the master list, leaving only genes regulated by 2'-FL supplementation after ICR which were not found in the non-supplemented adaptive response. Heatmaps were generated using hierarchical clustering with the Pearson's Centered distance metric and the average linkage rule; both entities and samples were clustered. All genomic analyses described above were performed in Strand NGS (Strand Life Sciences, CA). Gene list functional enrichment was initially discovered using ToppFun, a member of the ToppGene Suite. Chen et al. (2009) Nucleic acids research 37: […]-311. No statistical correction was selected. Gene lists were further analyzed using ClueGO, a plugin for Cytoscape designed to decipher functionally grouped gene ontology and pathway annotation networks. Bindea et al. (2009) Bioinformatics 25: 1091-1093. At the time of data analysis, the annotation files were updated from sources to Jan. 1, 2015. “GO Term Fusion” was enabled to manage ontologic term redundancy and network specificity was set to medium. Results were restricted to pathways with p≤0.05 using Benjamini-Hochberg correction and Kappa scoring was set to 0.4. Biocyc annotations were assigned a rectangle, gene ontology biologic processes were assigned an ellipse, and […] annotations were assigned a diamond shape. No meaning was assigned to size or color. […]
compound,measurement,setting,value
"C[C@@H]1O[C@@H](O[C@H]2[C@H](O[C@H]3[C@H](O)[C@@H](O)C(O)O[C@@H]3CO)O[C@H](CO)[C@H](O)[C@@H]2O)[C@@H](O)[C@H](O)[C@@H]1O (stereo partly drawn) [2′-FL, 2′-fucosyllactose]",Fold Change (Pre- to Post-op),Fam96a,5.558
same,Fold Change (Pre- to Post-op),Fam96b,3.112
same,Fold Change (Pre- to Post-op),Fam132a,3.194
same,Fold Change (Pre- to Post-op),Fam136a,4.738
same,Fold Change (Pre- to Post-op),Fam162a,5.356
same,Fold Change (Pre- to Post-op),Fam221b,4.095
same,Fold Change (Pre- to Post-op),Fau,3.379
same,Fold Change (Pre- to Post-op),Fbxl5,3.517
same,Fold Change (Pre- to Post-op),Fbxw9,3.597
same,Fold Change (Pre- to Post-op),Fdps,3.298
same,Fold Change (Pre- to Post-op),Fdx1,3.253
same,Fold Change (Pre- to Post-op),Fdxacb1,3.072
same,Fold Change (Pre- to Post-op),Fis1,3.366
same,Fold Change (Pre- to Post-op),Fmr1nb,12.73
same,Fold Change (Pre- to Post-op),Fopnl,3.476
same,Fold Change (Pre- to Post-op),Frmd8os,3.538
same,Fold Change (Pre- to Post-op),Fscn3,6.024
same,Fold Change (Pre- to Post-op),Gabarapl2,3.719
same,Fold Change (Pre- to Post-op),Gchfr,6.958
same,Fold Change (Pre- to Post-op),Ghrl,3.872
same,Fold Change (Pre- to Post-op),Gin1,3.504
same,Fold Change (Pre- to Post-op),Glod5,3.452
same,Fold Change (Pre- to Post-op),Glrx3,3.293
same,Fold Change (Pre- to Post-op),Gm2382,3.248
same,Fold Change (Pre- to Post-op),Gm3258,3.529
same,Fold Change (Pre- to Post-op),Gm4013,4.014
same,Fold Change (Pre- to Post-op),Gm4787,3.987
same,Fold Change (Pre- to Post-op),Gm5617,3.339
same,Fold Change (Pre- to Post-op),Gm6297,4.827
same,Fold Change (Pre- to Post-op),Gm6484,3.962
same,Fold Change (Pre- to Post-op),Gm9780,3.371
same,Fold Change (Pre- to Post-op),Gm9895,3.057
same,Fold Change (Pre- to Post-op),Gm9926,5.483
same,Fold Change (Pre- to Post-op),Gm10012,3.729
same,Fold Change (Pre- to Post-op),Gm10069,3.514
same,Fold Change (Pre- to Post-op),Gm10872,4.049
same,Fold Change (Pre- to Post-op),Gm11627,3.534
same,Fold Change (Pre- to Post-op),Gm12408,8.868
same,Fold Change (Pre- to Post-op),Gm12511,3.199
same,Fold Change (Pre- to Post-op),Gm12657,3.132
same,Fold Change (Pre- to Post-op),Gm13446,3.112
same,Fold Change (Pre- to Post-op),Gm14057,3.048
same,Fold Change (Pre- to Post-op),Gm14207,3.281
same,Fold Change (Pre- to Post-op),Gm14295,5.305
same,Fold Change (Pre- to Post-op),Gm14399,8.008
same,Fold Change (Pre- to Post-op),Gm15133,7.741
same,Fold Change (Pre- to Post-op),Gm15401,3.109
same,Fold Change (Pre- to Post-op),Gm15421,3.531
same,Fold Change (Pre- to Post-op),Gm15441,4.992
same,Fold Change (Pre- to Post-op),Gm17619,5.884
same,Fold Change (Pre- to Post-op),Gm20559,3.18
same,Fold Change (Pre- to Post-op),Gm20748,3.446
same,Fold Change (Pre- to Post-op),Gm20939,4.759
same,Fold Change (Pre- to Post-op),Gmfg,4.953
same,Fold Change (Pre- to Post-op),Gng10,3.124
same,Fold Change (Pre- to Post-op),Gng11,3.679
same,Fold Change (Pre- to Post-op),Gpx1,3.648
same,Fold Change (Pre- to Post-op),Gpx4,6.065
same,Fold Change (Pre- to Post-op),Gramd2,6.347
same,Fold Change (Pre- to Post-op),Gsta3,5.905
same,Fold Change (Pre- to Post-op),Gsta4,3.877
same,Fold Change (Pre- to Post-op),Gstm4,3.681
same,Fold Change (Pre- to Post-op),Gstt2,3.468
same,Fold Change (Pre- to Post-op),Gt(ROSA)26Sor,5.17
same,Fold Change (Pre- to Post-op),Gtf2a2,3.625
same,Fold Change (Pre- to Post-op),Gtf2h5,3.263
same,Fold Change (Pre- to Post-op),Guca1a,9.306
same,Fold Change (Pre- to Post-op),Guk1,7.262
same,Fold Change (Pre- to Post-op),H2afz,3.529
same,Fold Change (Pre- to Post-op),H3f3a,3.302
same,Fold Change (Pre- to Post-op),Hagh,3.337
same,Fold Change (Pre- to Post-op),Haus7,3.012
same,Fold Change (Pre- to Post-op),Hcrtr1,4.641
same,Fold Change (Pre- to Post-op),Hddc2,4.255
same,Fold Change (Pre- to Post-op),Hdhd3,3.186
same,Fold Change (Pre- to Post-op),Hebp2,3.635
same,Fold Change (Pre- to Post-op),Higd1a,3.567
same,Fold Change (Pre- to Post-op),Hint3,4.975
same,Fold Change (Pre- to Post-op),Hist1h2ba,3.294
same,Fold Change (Pre- to Post-op),Hist1h2bb,3.163
same,Fold Change (Pre- to Post-op),Hist1h2bc,3.588
same,Fold Change (Pre- to Post-op),Hist1h2bf,3.002
same,Fold Change (Pre- to Post-op),Hist1h2bg,3.16
same,Fold Change (Pre- to Post-op),Hist1h2bh,3.19
same,Fold Change (Pre- to Post-op),Hist1h2bj,3.203
same,Fold Change (Pre- to Post-op),Hist1h2bl,3.137
same,Fold Change (Pre- to Post-op),Hist1h2bm,3.186
same,Fold Change (Pre- to Post-op),Hist1h2bp,3.172
same,Fold Change (Pre- to Post-op),Hist1h2bq,3.205
same,Fold Change (Pre- to Post-op),Hist1h2br,3.199
same,Fold Change (Pre- to Post-op),Hist1h4i,3.129
same,Fold Change (Pre- to Post-op),Hist2h2aa2,3.081
same,Fold Change (Pre- to Post-op),Hlcs,−3.008
same,Fold Change (Pre- to Post-op),Hmbs,3.128
same,Fold Change (Pre- to Post-op),Hnmt,3.521
same,Fold Change (Pre- to Post-op),Hoga1,6.0542
same,Fold Change (Pre- to Post-op),Hrasls,5.154
same,Fold Change (Pre- to Post-op),Hsd11b1,3.929
same,Fold Change (Pre- to Post-op),Hspe1,3.664
same,Fold Change (Pre- to Post-op),Htatip2,3.421
same,Fold Change (Pre- to Post-op),Ict1,3.255
same,Fold Change (Pre- to Post-op),Idi1,4.609
same,Fold Change (Pre- to Post-op),Idnk,3.423
same,Fold Change (Pre- to Post-op),Ifi27l2a,3.444
same,Fold Change (Pre- to Post-op),Ifitm6,3.343
same,Fold Change (Pre- to Post-op),Ifrd1,5.172
same,Fold Change (Pre- to Post-op),Igj,3.264
same,Fold Change (Pre- to Post-op),Il18,3.224
same,Fold Change (Pre- to Post-op),Immp1l,5.377
same,Fold Change (Pre- to Post-op),Immp2l,3.062 and 3.061
same,Fold Change (Pre- to Post-op),Insig1,5.379
same,Fold Change (Pre- to Post-op),Insig2,3.408
same,Fold Change (Pre- to Post-op),Insl6,6.105
same,Fold Change (Pre- to Post-op),Iyd,3.776
same,Fold Change (Pre- to Post-op),Jmjd7,3.433
same,Fold Change (Pre- to Post-op),Kbtbd3,3.228
same,Fold Change (Pre- to Post-op),Khk,3.451
same,Fold Change (Pre- to Post-op),Klhl9,3.074
same,Fold Change (Pre- to Post-op),Krt14,8.678
same,Fold Change (Pre- to Post-op),LOC100503295,3.232
